PubChem BioAssay AID1224830 – NIAID – 2016
Aim: 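Host factors that control LPS-induced TNF expression in human macrophages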 (primary screen). Cell system: human THP-1 monocytic leukaemia cells, TNF dual-luciferase reporter clone, PMA-differentiated to macrophage-like cells. Knock-down reagent: siRNA pool against human genes, 50 nM. Duration: LPS for 4 h, given about 3 days after siRNA transfection. Challenge: bacterial LPS (TLR4 ligand), 10 ng/ml. Measured: 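Ratio of firefly to renilla light, scaled to the plate median and expressed as a robust z-score per replicate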. Reading the numbers: TNF reporter robust z-score: higher = stronger TNF reporter response to LPS. Call rule: 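a well is active when its z-score exceeds 2.8 or falls below -1.5; control wells carry no call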.
Here is a random part of about 18,000 deposited reagents. About 2,900 of them (16%) count as active. 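Calls are made per well; low scores hint the gene aids the LPS response, high scores that it dampens it.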 A number with no mark means an inactive call. Repeated entries: four replicate wells of each siRNA pool. No sequences are given here.

MTFMT — TNF reporter robust z-score = -0.2
MTFMT — TNF reporter robust z-score = -0.69
MTFMT — TNF reporter robust z-score = -0.11
MTFMT — TNF reporter robust z-score = -0.26
OR4F21 — TNF reporter robust z-score = -0.42
OR4F21 — TNF reporter robust z-score = -0.01
OR4F21 — TNF reporter robust z-score = -0.47
OR4F21 — TNF reporter robust z-score = 0.17
CPED1 — TNF reporter robust z-score = -1.02
CPED1 — TNF reporter robust z-score = -1.2
CPED1 — TNF reporter robust z-score = -1.06
CPED1 — TNF reporter robust z-score = -0.81
SPRR2B — TNF reporter robust z-score = 0.8
SPRR2B — TNF reporter robust z-score = 1.94
SPRR2B — TNF reporter robust z-score = 1.61
SPRR2B — TNF reporter robust z-score = 2.7
CDC40 — TNF reporter robust z-score = -0.41
CDC40 — TNF reporter robust z-score = -0.74
CDC40 — TNF reporter robust z-score = 0.02
CDC40 — TNF reporter robust z-score = 0.21
CCDC38 — TNF reporter robust z-score = -0.29
CCDC38 — TNF reporter robust z-score = 0.57
CCDC38 — TNF reporter robust z-score = -0.83
ADIPOR2 — TNF reporter robust z-score = -0.34
ADIPOR2 — TNF reporter robust z-score = -0.4
ADIPOR2 — TNF reporter robust z-score = 0.22
ADIPOR2 — TNF reporter robust z-score = 1.54
AGMAT — TNF reporter robust z-score = 0.3
AGMAT — TNF reporter robust z-score = -0.74
AGMAT — TNF reporter robust z-score = 0.57
AGMAT — TNF reporter robust z-score = 1.27
CACNA2D3 — TNF reporter robust z-score = 0.62
CACNA2D3 — TNF reporter robust z-score = -0.72
CACNA2D3 — TNF reporter robust z-score = -0.28
CACNA2D3 — TNF reporter robust z-score = -0.38
UBE3D — TNF reporter robust z-score = -2.08 (active)
UBE3D — TNF reporter robust z-score = -1.39
UBE3D — TNF reporter robust z-score = -1.36
UBE3D — TNF reporter robust z-score = -1.6 (active)
RGMA — TNF reporter robust z-score = -0.69
RGMA — TNF reporter robust z-score = -0.19
RGMA — TNF reporter robust z-score = -0.46
RGMA — TNF reporter robust z-score = -0.09
AMY1B — TNF reporter robust z-score = -0.01
AMY1B — TNF reporter robust z-score = 0.02
AMY1B — TNF reporter robust z-score = 0.37
AMY1B — TNF reporter robust z-score = 0.48
SSH3 — TNF reporter robust z-score = -1.24
SSH3 — TNF reporter robust z-score = -0.21
SSH3 — TNF reporter robust z-score = -1.05
SSH3 — TNF reporter robust z-score = 0.14
ZNF556 — TNF reporter robust z-score = -1.45
ZNF556 — TNF reporter robust z-score = -1.65 (active)
ZNF556 — TNF reporter robust z-score = -1.29
ZNF556 — TNF reporter robust z-score = -1.16
TCF20 — TNF reporter robust z-score = 0.35
TCF20 — TNF reporter robust z-score = -0.06
TCF20 — TNF reporter robust z-score = -0.01
TCF20 — TNF reporter robust z-score = 0.58
DPAGT1 — TNF reporter robust z-score = -0.42
DPAGT1 — TNF reporter robust z-score = -0.02
DPAGT1 — TNF reporter robust z-score = 0.37
DPAGT1 — TNF reporter robust z-score = -0.14
